Experimental data: PubChem BioAssay AID1259405 (NCATS, 2018)
Shown is an unselected part of about 50,000 deposited reagents. Of all reagents, about 4,000 (8%) were called active. 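Mouse siRNA library applied to hamster cells; one well for each siRNA.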 A number with no mark means an inactive call. The numbers tell different reagents against one gene apart. No sequences are given here.

- Aim: 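Knock-downs that lift recombinant protein yield in hamster ovary cells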 (primary screen)
- Cells: Chinese hamster CHO-K1 ovary cells with stable secreted eGFP expression
- Knock-down reagent: single siRNA against mouse genes, 0.8 pmol siRNA per well (2 µl of 400 nM stock)
- Timing: 3 days
- Detection: 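Per-well intracellular GFP measured by laser scanning cytometry, plus viability from ATP luminescence, each relative to plate median of non-targeting control wells, in %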
- Scale: GFP, % of control: higher = more GFP per well, higher productivity; viability (ATP), % of control: higher = more viable cells (more ATP)
- Active means: 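Called active when intracellular GFP, relative to negative control, is at or above 120%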

Tmem198 (transmembrane protein 198) #1 scored GFP, % of control 80.1; viability (ATP), % of control 70.8. After knock-down of Tmem198 (transmembrane protein 198) #2, the record shows GFP, % of control 113; viability (ATP), % of control 78.5. Tmem198 (transmembrane protein 198) #3 gave GFP, % of control 75.7; viability (ATP), % of control 74.5. Depletion of Or2d36 (olfactory receptor family 2 subfamily D member 36) #1 came out at: GFP, % of control 108; viability (ATP), % of control 92.2. After knock-down of Or2d36 (olfactory receptor family 2 subfamily D member 36) #2 the results were GFP, % of control 72.8; viability (ATP), % of control 53.3. Or2d36 (olfactory receptor family 2 subfamily D member 36) #3 scored GFP, % of control 75.3; viability (ATP), % of control 43.4.

Ssh1 (slingshot protein phosphatase 1) #1 gave GFP, % of control 76.4; viability (ATP), % of control 82. After knock-down of Ssh1 (slingshot protein phosphatase 1) #2 the results were GFP, % of control 79.3; viability (ATP), % of control 56.6. For Ssh1 (slingshot protein phosphatase 1) #3, the entry reads GFP, % of control 68.8; viability (ATP), % of control 49. Bphl (biphenyl hydrolase like) #1 scored GFP, % of control 136 (active); viability (ATP), % of control 117. Against Bphl (biphenyl hydrolase like) #2 the deposit lists GFP, % of control 81.5; viability (ATP), % of control 96.6. For Bphl (biphenyl hydrolase like) #3 the deposit lists GFP, % of control 60.3; viability (ATP), % of control 64.8.

Against Herpud1 #1, the entry reads GFP, % of control 79.3; viability (ATP), % of control 73.1. For Herpud1 #2, the entry reads GFP, % of control 111; viability (ATP), % of control 102. After knock-down of Herpud1 #3, the screen gave GFP, % of control 111; viability (ATP), % of control 62.1. After knock-down of Bhmt2 (betaine-homocysteine methyltransferase 2) #1, the record shows GFP, % of control 101; viability (ATP), % of control 79.2. Silencing of Bhmt2 (betaine-homocysteine methyltransferase 2) #2 resulted in: GFP, % of control 47.9; viability (ATP), % of control 69.5. With knock-down of Bhmt2 (betaine-homocysteine methyltransferase 2) #3, the record shows GFP, % of control 69.5; viability (ATP), % of control 94.2.

Against Ppic (peptidylprolyl isomerase C) #1 the deposit lists GFP, % of control 66.9; viability (ATP), % of control 85.9. For Ppic (peptidylprolyl isomerase C) #2 the deposit lists GFP, % of control 63.4; viability (ATP), % of control 69.7. Knock-down of Ppic (peptidylprolyl isomerase C) #3 resulted in: GFP, % of control 67.8; viability (ATP), % of control 84.3. With knock-down of Cryab (crystallin, alpha B) #1, the record shows GFP, % of control 78.1; viability (ATP), % of control 110. For Cryab (crystallin, alpha B) #2, the entry reads GFP, % of control 84.3; viability (ATP), % of control 85. E2f6 (E2F transcription factor 6) #1 scored GFP, % of control 77.9; viability (ATP), % of control 81.5.

E2f6 (E2F transcription factor 6) #2 showed GFP, % of control 69; viability (ATP), % of control 84.9. Or2y14 (olfactory receptor family 2 subfamily Y member 14) #1 showed GFP, % of control 84.7; viability (ATP), % of control 86.4. Or2y14 (olfactory receptor family 2 subfamily Y member 14) #2 gave GFP, % of control 78.6; viability (ATP), % of control 92.5. Or2y14 (olfactory receptor family 2 subfamily Y member 14) #3 gave GFP, % of control 31.3; viability (ATP), % of control 57.6. Fyco1 (FYVE and coiled-coil domain containing 1) #1 scored GFP, % of control 71.1; viability (ATP), % of control 83.6. With knock-down of Fyco1 (FYVE and coiled-coil domain containing 1) #2, the screen gave GFP, % of control 76.7; viability (ATP), % of control 30.4.

Against Fyco1 (FYVE and coiled-coil domain containing 1) #3, the entry reads GFP, % of control 72.9; viability (ATP), % of control 71. Knock-down of Puf60 (poly-U binding splicing factor 60) #1 resulted in: GFP, % of control 70.9; viability (ATP), % of control 87.3. Depletion of Puf60 (poly-U binding splicing factor 60) #2 gave: GFP, % of control 70.6; viability (ATP), % of control 68.6. After knock-down of Puf60 (poly-U binding splicing factor 60) #3, the screen gave GFP, % of control 112; viability (ATP), % of control 54.

In a second layout: entries from further up.
gene symbol | reagent | GFP, % of control | viability (ATP), % of control
Fyco1 (FYVE and coiled-coil domain containing 1) | 3 | 72.9 | 71
Puf60 (poly-U binding splicing factor 60) | 1 | 70.9 | 87.3
Puf60 (poly-U binding splicing factor 60) | 2 | 70.6 | 68.6

Additional records follow.
Knock-down of Slco4a1 #1 resulted in: GFP, % of control 57.9; viability (ATP), % of control 52.8. Silencing of Slco4a1 #2 gave: GFP, % of control 114; viability (ATP), % of control 87.9. Knock-down of Slco4a1 #3 resulted in: GFP, % of control 80; viability (ATP), % of control 66.1. Knock-down of Zranb2 (zinc finger, RAN-binding domain containing 2) #1 gave: GFP, % of control 34.9; viability (ATP), % of control 27. For Zranb2 (zinc finger, RAN-binding domain containing 2) #2, the values are GFP, % of control 58.1; viability (ATP), % of control 63.4. Silencing of Zranb2 (zinc finger, RAN-binding domain containing 2) #3 came out at: GFP, % of control 45.4; viability (ATP), % of control 48.8.

After knock-down of Iba57 (IBA57 iron-sulfur cluster assembly factor) #1, the screen gave GFP, % of control 106; viability (ATP), % of control 106. Iba57 (IBA57 iron-sulfur cluster assembly factor) #2 showed GFP, % of control 35.8; viability (ATP), % of control 63.9. Iba57 (IBA57 iron-sulfur cluster assembly factor) #3 showed GFP, % of control 80.2; viability (ATP), % of control 88.1. After knock-down of Iba57 (IBA57 iron-sulfur cluster assembly factor) #4, the screen gave GFP, % of control 76.6; viability (ATP), % of control 90.1. Silencing of Iba57 (IBA57 iron-sulfur cluster assembly factor) #5 resulted in: GFP, % of control 62.5; viability (ATP), % of control 30.5. Iba57 (IBA57 iron-sulfur cluster assembly factor) #6 showed GFP, % of control 50.2; viability (ATP), % of control 67.5.

Depletion of Mctp1 (multiple C2 domains, transmembrane 1) #1 gave: GFP, % of control 63.6; viability (ATP), % of control 81.7. With knock-down of Mctp1 (multiple C2 domains, transmembrane 1) #2, the screen gave GFP, % of control 79.8; viability (ATP), % of control 78.6. For Mctp1 (multiple C2 domains, transmembrane 1) #3 the deposit lists GFP, % of control 84.2; viability (ATP), % of control 72.2. With knock-down of Tnni3 (troponin I, cardiac 3) #1 the results were GFP, % of control 101; viability (ATP), % of control 77.3. Against Tnni3 (troponin I, cardiac 3) #2 the deposit lists GFP, % of control 106; viability (ATP), % of control 86.4. Silencing of Vps11 (VPS11, CORVET/HOPS core subunit) #1 resulted in: GFP, % of control 93.8; viability (ATP), % of control 113.

Vps11 (VPS11, CORVET/HOPS core subunit) #2 scored GFP, % of control 68.2; viability (ATP), % of control 102.
